Weaker means in comparison with the reference protein, sequence or condition of that experiment. For some assays here: The exact form of at least one protein or probe is not confirmed. For some assays here: At least one verdict was read from the data and is not stated in words by the source.
Columns and labels:
Assay in all cases: EMSA
[1] = test system: SIM1 (1-348) + ARNT2 (69-438); details: weaker than on 79mer; EMSA: 10 nM probe, 20 mM Tris pH 8.0, 250 mM NaCl, 16 ug/ml salmon sperm ssDNA, 30 ug/ml BSA, 1.25 mM MgCl2, 6% glycerol, 10 mM DTT, room temperature 30 min; recombinant protein; protein details: 6xHis-TEV, tag removed by TEV,untagged; label: FAM (upper strand)
[2] = test system: SIM1.R171H (1-348) + ARNT2 (69-438); details: weaker than on 79mer, same as WT; EMSA: 10 nM probe, 20 mM Tris pH 8.0, 250 mM NaCl, 16 ug/ml salmon sperm ssDNA, 30 ug/ml BSA, 1.25 mM MgCl2, 6% glycerol, 10 mM DTT, room temperature 30 min; recombinant protein; protein details: 6xHis-TEV, tag removed by TEV,untagged; label: FAM (upper strand)
[3] = test system: NPAS4 (1-329) + ARNT2 (1-481); details: EMSA: 10 nM probe, 20 mM Tris pH 8.0, 250 mM NaCl, 16 ug/ml salmon sperm ssDNA, 30 ug/ml BSA, 1.25 mM MgCl2, 6% glycerol, 10 mM DTT, room temperature 30 min, recombinant protein, protein details: 6xHis-TEV, tag removed,untagged
[4] = test system: SIM1 bHLH-PASA-PASB + ARNT2 bHLH-PASA-PASB; details: EMSA: 10 nM probe, 20 mM Tris pH 8.0, 250 mM NaCl, 16 ug/ml salmon sperm ssDNA, 30 ug/ml BSA, 1.25 mM MgCl2, 6% glycerol, 10 mM DTT, room temperature 30 min, recombinant protein, protein details: 6xHis-TEV, tag removed,untagged
[5] = test system: HIF1a bHLH-PASA-PASB + ARNT bHLH-PASA-PASB; details: EMSA: 10 nM probe, 20 mM Tris pH 8.0, 250 mM NaCl, 16 ug/ml salmon sperm ssDNA, 30 ug/ml BSA, 1.25 mM MgCl2, 6% glycerol, 10 mM DTT, room temperature 30 min, recombinant protein, protein details: 6xHis-TEV, tag removed,untagged, label: FAM
[6] = test system: HIF2a bHLH-PASA-PASB + ARNT bHLH-PASA-PASB; details: EMSA: 10 nM probe, 20 mM Tris pH 8.0, 250 mM NaCl, 16 ug/ml salmon sperm ssDNA, 30 ug/ml BSA, 1.25 mM MgCl2, 6% glycerol, 10 mM DTT, room temperature 30 min, recombinant protein, protein details: 6xHis-TEV, tag removed,untagged, label: FAM
[7] = partial block, methylcytosine, bottom strand (positions in figure only), label: FAM
[8] = partial block, methylcytosine, bottom strand (positions in figure only)
[9] = partial block, methylcytosine, top strand (positions in figure only)
[10] = methylcytosine, both strands (positions in figure only), label: FAM
[11] = methylcytosine, both strands (positions in figure only)

“AAAAGGTACGTGACCAAAAAGA (double strand) [SRE 22mer (top SIM1/ARNT2 probe)]”: binds more weakly [1]; binds more weakly [2].

“AAACCCGTCGTGACCAAAAATT (double strand) [CCC_NRE]”: binds more weakly ([3]; label: FAM (upper strand)).

“AAATGAGTCGTGACCAAAAATT (double strand) [NRE (top NPAS4/ARNT2 22mer)]”: binds ([3]; reference probe, label: FAM (upper strand)).

“AAATGAGTCGTGACCCCCAATT (double strand) [NRE_CCC]”: binds more weakly ([3]; label: FAM (upper strand)).

“AAATGAGTCGTGGCCAAAAATT (double strand) [NRE_G]”: binds more weakly ([3]; label: FAM (upper strand)).

“AATGGGTACGTGCCAAATTGAA (double strand) [HIF2a/ARNT top 22mer]”: binds more weakly ([4]; label: FAM (upper strand)).

“AGGCTGCGTACGTGCGGGTCGT (double strand) [HRE C/C]”: binds ([4]; label: FAM); binds [5]; binds [6].

“AGGCTGCGTACGTGCGGGTCGT (double strand) [HRE C/mC]”: binds more weakly [4, 7]; binds more weakly [5, 8]; binds more weakly [6, 8].

“AGGCTGCGTACGTGCGGGTCGT (double strand) [HRE mC/C]”: binds more weakly ([4]; partial block, methylcytosine, top strand (positions in figure only), label: FAM); binds more weakly [5, 9]; binds more weakly [6, 9].

“AGGCTGCGTACGTGCGGGTCGT (double strand) [HRE mC/mC]”: binds more weakly [4, 10]; binds more weakly [5, 11]; binds more weakly [6, 11].

“TGATTCTGGTAATTCGTGCACTAGAGTGTC (double strand) [BDNF exIV C/mC]”: binds more weakly [3, 7].

“TGATTCTGGTAATTCGTGCACTAGAGTGTC (double strand) [BDNF exIV NPAS4 response element C/C]”: binds ([3]; label: FAM).

“TGATTCTGGTAATTCGTGCACTAGAGTGTC (double strand) [BDNF exIV mC/C]”: binds more weakly ([3]; partial block, methylcytosine, top strand (positions shown in red in figure only), label: FAM).

“TGATTCTGGTAATTCGTGCACTAGAGTGTC (double strand) [BDNF exIV mC/mC]”: binds more weakly [3, 10].
